This is an account of results in patent USRE45313E1 (priority 1999, dated 2014).

Data set [1] in a line: general procedure: Fmoc solid-phase peptide synthesis; TentaGel S-RAM-Lys(Boc)Fmoc; DIC/HObt (Fmoc-amino acid HObt esters generated in situ, 3 eq.). As to conditions: whole synthesis, scale of the general procedure 100-1000 mg resin, 0.22-0.31 mmol/g; for final HPLC purity: RP-HPLC, UV 215 nm.
Data set [2] is described as follows: general procedure: Fmoc solid-phase peptide synthesis; TentaGel S-RAM-Fmoc; DIC/HObt (Fmoc-amino acid HObt esters generated in situ, 3 eq.). As to conditions: whole synthesis, scale of the general procedure 100-1000 mg resin, 0.22-0.31 mmol/g.
Data set [3] can be described thus: general procedure: Fmoc solid-phase peptide synthesis; TentaGel S-RAM; TentaGel S RAM-Lys(Boc)Fmoc (0.22-0.31 mmol/g, Rapp polymere); DIC/HObt (Fmoc-amino acid HObt esters generated in situ, 3 eq.). As to conditions: whole synthesis, RP-HPLC, UV 215 nm, scale of the general procedure 100-1000 mg resin.
Data set [4] can be described thus: general procedure: Fmoc solid-phase peptide synthesis; TentaGel S-RAM; DIC/HObt (Fmoc-amino acid HObt esters generated in situ, 3 eq.). As to conditions: whole synthesis, scale of the general procedure 100-1000 mg resin, 0.22-0.31 mmol/g.

For part of these data: Some peptides are written in HELM: one residue between dots, names in brackets for other building blocks, links after the first $.

As to “H-His-Gly-Glu-Gly-Thr-Phe-Thr-Phe-Thr-Ser-Asp-Asp-Leu-Ser-Lys-Gln-Met-Glu-Glu-Glu-Ala-Val-Arg-Leu-Phe-Ile-Glu-Trp-Leu-Lys-Asn-Gly-Gly-Pro-Ser-Ser-Gly-Ala-Ser-(Lys)6-NH2”, in data set [1], the “final HPLC purity” value is “better than 97%” and the isolated yield is listed as 19%.

On to “H-His-Gly-Glu-Gly-Thr-Phe-Thr-Phe-Thr-Ser-Asp-Val-Ser-Ser-Try-Leu-Glu-Gly-Gln-Ala-Ala-Lys-Glu-Phe-Ile-Ala-Trp-Leu-Val-Lys-Gly-Arg-Lys-Lys-Lys-Lys-Lys-Lys-Lys-Lys-Lys-Lys-NH2”, for which, in data set [1], the “final HPLC purity” value is “better than 95%” and the isolated yield turned out to be 2%.

Consider “H-His-Gly-Glu-Gly-Thr-Phe-Thr-Ser-Asp-Val-Ser-Ser-Tyr-Leu-Glu-Gly-Gln-Ala-Ala-Lys-Glu-Phe-Ile-Ala-Trp-Leu-Val-Lys-Gly-Arg-Lys-Lys-Lys-Lys-Lys-Lys-Lys-Lys-NH2”, for which, in data set [1], the “final HPLC purity” value is “better than 98%” and the isolated yield is recorded as 4.2%.

Turning to “H-His-Gly-Gly-Gly-Thr-Phe-Thr-Ser-Asp-Val-Ser-Ser-Tyr-Leu -Glu-Gly-Gln-Ala-Ala-Lys-Glu-Phe-Ile-Ala-Trp-Leu-Val-Lys-Gly-Arg-Lys(palmitoyl)-(Lys)6-NH2”, in data set [1], the “final HPLC purity” value is “better than 95%” and the isolated yield turned out to be 9.3%.

“H-KKKKKKHGEGTFTSDVSSTLEGQAAKEFIAWLVKGR-NH2”: the “final HPLC purity” value in data set [2] (RP-HPLC, UV 215 nm) is “better than 98%”. This substance displayed an isolated yield in data set [2] of 15%.

“H-Lys-Lys-Lys-Lys-Lys-Lys-His-Gly-Glu-Gly-Thr-Phe-Thr-Ser-Asp-Val-Ser-Ser-Tyr-Leu-Glu-Gly-Gln-Ala-Ala-Lys-Glu-Phe-Ile-Ala-Trp-Leu-Val-Lys-Gly-Arg-Lys-Lys-Lys-Lys-Lys-Lys-NH2”: in data set [1], the “final HPLC purity” value was “better than 90%” and the isolated yield turned out to be 18%.

As for “PEPTIDE1{H.G.E.G.T.F.T.S.D.V.S.S.Y.L.E.G.Q.A.A.K.E.F.I.A.W.L.V.K.G.R.K.K.K.K.K.K.[am]}$$$$V2.0”, the “final HPLC purity” value in data set [1] (run 1) is recorded as “better than 95%”; in data set [1] (run 2) it was “better than 90%”; in data set [3] (run 3), 97%. The values for the isolated yield in data set [1] (run 1) and in data set [1] (run 2) were 11.7% and 13%, respectively.

“PEPTIDE1{H.G.E.G.T.F.T.S.D.V.S.S.Y.L.E.G.Q.A.A.K.E.F.I.A.W.L.V.K.G.R.[am]}$$$$V2.0”: the “final HPLC purity” value in data set [4] (RP-HPLC, UV 215 nm, run 1) is “better than 95%”; in data set [3] (run 2) it was 99.7%. Also, the isolated yield in data set [4] was 9%.

As for “PEPTIDE1{H.G.E.G.T.F.T.S.D.V.S.S.Y.L.E.G.Q.A.A.K.E.F.I.A.W.L.V.[Lys(palmitoyl)].G.R.K.K.K.K.K.K.[am]}$$$$V2.0”, in data set [1], the “final HPLC purity” value is “better than 90%” and the isolated yield worked out at 4.2%.

Regarding “PEPTIDE1{H.G.E.G.T.F.T.S.D.V.S.S.Y.L.E.G.Q.A.A.[Lys(palmitoyl)].E.F.I.A.W.L.V.K.G.R.K.K.K.K.K.K.[am]}$$$$V2.0”, in data set [1], the “final HPLC purity” value is “better than 90%” and the isolated yield is reported as 2.2%.
